Laboratory results from PubChem BioAssay AID248 (DTP/NCI, 2004).
The list does not hold the whole screen: it gathers tests that were run many times, whatever their T/C, doses with no T/C, and many T/C values between a quarter and a half above the control. Further doses and runs are listed elsewhere. T/C is the treated group as % of the vehicle group. Some entries give survivors of the animals treated and no T/C: the source holds a T/C of zero for them, seemingly a mark for toxic or unscored doses. Some survivor counts are full or nearly so, which does not show that the dose was tolerated: the source hardly ever lists a survival T/C far under the control, and the zero likely stands for such cases as well. Counts of survivors are from the toxicity check (mostly the fifth day) where no day follows; animals may have died later. Schedule codes are those of the source, taken here to give the interval after Q, in days (D) or hours (H), and the number of doses after X. Some doses were run more than once; the values are given in rising order. Additions like (4×) stand for listed records that agree. Where survival is the endpoint, this PubChem deposit counts one and a half times the control or more as active, and values a quarter to a half above the control carry no call in these data; other NCI protocols may use other cut-offs. Some schedule codes hold Z or #, which are not explained here. Some T/C values are followed by the survivors on the day toxicity was checked, most often the fifth; where none is given, no animal had died by that day.

System: L1210 leukemia ip in BDF1 mice, survival T/C
Experiment: NCI In Vivo Anticancer Drug Screen. Data for tumor model L1210 Leukemia (intraperitoneal) in B6D2F1 (BDF1) mice
Conditions: T/C endpoint: mean survival time, higher T/C = longer survival
[1] = dose: 400.0 mg/kg/injection, schedule: Q01DX001 (ip), vehicle: carboxymethylcellulose (CMC)
[2] = dose: 40.0 mg/kg/injection, schedule: Q01DX001 (ip), vehicle: saline
[3] = dose: 80.0 mg/kg/injection, schedule: Q01DX001 (ip), vehicle: saline
[4] = dose: 100.0 mg/kg/injection, schedule: Q01DX001 (ip), vehicle: saline
[5] = dose: 200.0 mg/kg/injection, schedule: Q01DX001 (ip), vehicle: saline
[6] = dose: 400.0 mg/kg/injection, schedule: Q01DX001 (ip), vehicle: saline
[7] = dose: 75.0 mg/kg/injection, schedule: Q01DX001 (ip), vehicle: saline
[8] = dose: 150.0 mg/kg/injection, schedule: Q01DX001 (ip), vehicle: saline
[9] = dose: 300.0 mg/kg/injection, schedule: Q01DX001 (ip), vehicle: saline
[10] = dose: 100.0 mg/kg/injection, schedule: Q04DX002 (ip), vehicle: Klucel (hydroxypropylcellulose) (HPC)
[11] = dose: 25.0 mg/kg/injection, schedule: Q04DX003 (ip), vehicle: saline
[12] = dose: 400.0 mg/kg/injection, schedule: Q01DX009 (ip), vehicle: Klucel (hydroxypropylcellulose) (HPC)
[13] = dose: 100.0 mg/kg/injection, schedule: Q01DX005 (ip), vehicle: other

Question: `C1CNC(SCCOCCOCCSC2=NCCN2)=N1` was tested. Which survivor count (dose: 100.0 mg/kg/injection, schedule: Q01DX009 (ip), vehicle: saline) did it give?
Answer: Its survivor count is 2 of 6.

Question: What about the survivor count (dose: 200.0 mg/kg/injection, schedule: Q01DX009 (ip), vehicle: saline) of the same compound?
Answer: Its survivor count is 0 of 6.

Question: What about the survivor count (dose: 400.0 mg/kg/injection, schedule: Q01DX009 (ip), vehicle: saline) of the same compound?
Answer: The survivor count was 0 of 6.

Question: Which T/C (dose: 20.0 mg/kg/injection, schedule: Q01DX Z (ip), vehicle: carboxymethylcellulose (CMC)) does the source give for `CCOC(=O)Sc1ncnc2nc[nH]c12` here?
Answer: The T/C was 147 % of control.

Question: What about the T/C (dose: 40.0 mg/kg/injection, schedule: Q01DX Z (ip), vehicle: carboxymethylcellulose (CMC)) of the same compound?
Answer: Its T/C is 147 % of control.

Question: What about the T/C (dose: 80.0 mg/kg/injection, schedule: Q01DX Z (ip), vehicle: carboxymethylcellulose (CMC)) of the same compound?
Answer: Its T/C is 147 % of control.

Question: For `COc1ccc(C(=O)CBr)cc1OC`, which survivor count (dose: 200.0 mg/kg/injection, schedule: Q01DX001 (ip), vehicle: carboxymethylcellulose (CMC)) is on record?
Answer: Its survivor count is 1 of 6.

Question: And the survivor count [1]?
Answer: Its survivor count is 1 of 6.

Question: What does the source list for `O=C(O)/C=C/[P+](c1ccccc1)(c1ccccc1)c1ccccc1`?
Answer: survivor count [2]: 0 of 4; survivor count [3]: 0 of 4; survivor count [4]: 0 of 4; survivor count [5]: 0 of 4; survivor count [6]: 0 of 4

Question: Which survivor count [4] does the source give for `O=C(O)COc1cc(Cl)c(Cl)cc1Cl` (tested in a mixture with another compound) here?
Answer: Its survivor count is 0 of 6 and 1 of 6.

Question: And the survivor count [5]?
Answer: The survivor count was 0 of 6.

Question: And the survivor count [6]?
Answer: Its survivor count is 0 of 6.

Question: `OC1(c2ccc(F)cc2)c2ccccc2-c2ccccc21` was tested. Which survivor count (dose: 300.0 mg/kg/injection, schedule: Q01DX001 (ip), vehicle: other) did it give?
Answer: The survivor count was 3 of 6.

Question: `C(=N\NC1=NCCN1)/c1ccccc1` was tested. Which survivor count [2] did it give?
Answer: The survivor count was 1 of 6.

Question: And the survivor count [7]?
Answer: The survivor count was 1 of 6.

Question: And the survivor count [8]?
Answer: Its survivor count is 0 of 6.

Question: What about the survivor count [9] of the same compound?
Answer: Its survivor count is 0 of 6.

Question: `O=C1NC(=S)S/C1=C\c1ccc(Cl)c(Cl)c1` was tested. Which survivor count (dose: 400.0 mg/kg/injection, schedule: Q01DX009 (ip), vehicle: saline with Tween-80) did it give?
Answer: The survivor count was 3 of 6.

Question: How did the survivor count (dose: 25.0 mg/kg/injection, schedule: Q04DX002 (ip), vehicle: Klucel (hydroxypropylcellulose) (HPC)) turn out when `O=C(Nc1ncc([N+](=O)[O-])s1)c1ccc(Cl)s1` was run?
Answer: The survivor count was 1 of 3.

Question: What about the survivor count (dose: 50.0 mg/kg/injection, schedule: Q04DX002 (ip), vehicle: Klucel (hydroxypropylcellulose) (HPC)) of the same compound?
Answer: The survivor count was 0 of 3.

Question: What about the survivor count [10] of the same compound?
Answer: The survivor count was 0 of 3.

Question: What about the survivor count (dose: 200.0 mg/kg/injection, schedule: Q04DX002 (ip), vehicle: Klucel (hydroxypropylcellulose) (HPC)) of the same compound?
Answer: The survivor count was 0 of 3.

Question: And the survivor count (dose: 400.0 mg/kg/injection, schedule: Q04DX002 (ip), vehicle: Klucel (hydroxypropylcellulose) (HPC))?
Answer: Its survivor count is 0 of 3.

Question: Which results are given for `OCCN1CCN(CCCN2c3ccccc3Sc3ccc(C(F)(F)F)cc32)CC1`?
Answer: survivor count (dose: 2.5 mg/kg/injection, schedule: Q01DX009 (ip), vehicle: saline): 6 of 6; survivor count (dose: 3.12 mg/kg/injection, schedule: Q01DX009 (ip), vehicle: saline): 6 of 6; survivor count (dose: 4.68 mg/kg/injection, schedule: Q01DX009 (ip), vehicle: saline): 6 of 6; survivor count (dose: 5.0 mg/kg/injection, schedule: Q01DX009 (ip), vehicle: saline): 6 of 6; survivor count (dose: 6.25 mg/kg/injection, schedule: Q01DX009 (ip), vehicle: saline): 6 of 6; survivor count (dose: 7.7 mg/kg/injection, schedule: Q01DX009 (ip), vehicle: saline): 5 of 6; survivor count (dose: 9.37 mg/kg/injection, schedule: Q01DX009 (ip), vehicle: saline): 6 of 6; survivor count (dose: 10.0 mg/kg/injection, schedule: Q01DX009 (ip), vehicle: saline): 6 of 6; survivor count (dose: 11.5 mg/kg/injection, schedule: Q01DX009 (ip), vehicle: saline): 6 of 6; survivor count (dose: 12.5 mg/kg/injection, schedule: Q04DX003 (ip), vehicle: saline): 2 of 4; survivor count (dose: 18.75 mg/kg/injection, schedule: Q04DX003 (ip), vehicle: Klucel (hydroxypropylcellulose) (HPC)): 5 of 6; survivor count (dose: 20.0 mg/kg/injection, schedule: Q01DX009 (ip), vehicle: saline): 2 of 6; T/C [11]: 126, 130, 146 % of control; survivor count [11]: 0 of 4; survivor count (dose: 37.5 mg/kg/injection, schedule: Q04DX003 (ip), vehicle: Klucel (hydroxypropylcellulose) (HPC)): 5 of 6; survivor count (dose: 50.0 mg/kg/injection, schedule: Q04DX003 (ip), vehicle: saline): 0 of 4, 6 of 7, 4 of 4; survivor count (dose: 75.0 mg/kg/injection, schedule: Q04DX003 (ip), vehicle: Klucel (hydroxypropylcellulose) (HPC)): 5 of 6; survivor count (dose: 100.0 mg/kg/injection, schedule: Q04DX003 (ip), vehicle: saline): 0 of 4 (2×) and 6 of 7; survivor count (dose: 200.0 mg/kg/injection, schedule: Q04DX003 (ip), vehicle: saline): 0 of 4 (2×) and 0 of 7; survivor count (dose: 400.0 mg/kg/injection, schedule: Q04DX003 (ip), vehicle: saline): 0 of 4

Question: `O=C(O)CC(Br)CBr` (stereo not drawn) was tested. Which survivor count [6] did it give?
Answer: Its survivor count is 1 of 4.

Question: How did the survivor count (dose: 100.0 mg/kg/injection, schedule: Q01DX009 (ip), vehicle: Klucel (hydroxypropylcellulose) (HPC)) turn out when `CCO/C=C1\SC(=S)N(c2cccc(O)c2)C1=O` was run?
Answer: The survivor count was 6 of 6.

Question: What about the survivor count (dose: 200.0 mg/kg/injection, schedule: Q01DX009 (ip), vehicle: Klucel (hydroxypropylcellulose) (HPC)) of the same compound?
Answer: Its survivor count is 1 of 6.

Question: What about the survivor count [12] of the same compound?
Answer: The survivor count was 0 of 6.

Question: `Cc1cc(=O)c2cccc(C)c2[nH]1` was tested. Which survivor count [12] did it give?
Answer: Its survivor count is 1 of 6.

Question: Which survivor count (dose: 100.0 mg/kg/injection, schedule: Q01DX001 (ip), vehicle: other) does the source give for `Cn1c(=O)c2c(nc(C3CC=CCC3)n2C)n(C)c1=O` (stereo not drawn) here?
Answer: Its survivor count is 0 of 4.

Question: And the survivor count (dose: 200.0 mg/kg/injection, schedule: Q01DX001 (ip), vehicle: other)?
Answer: The survivor count was 0 of 4.

Question: What about the survivor count (dose: 400.0 mg/kg/injection, schedule: Q01DX001 (ip), vehicle: other) of the same compound?
Answer: Its survivor count is 0 of 4.

Question: Which survivor count (dose: 100.0 mg/kg/injection, schedule: Q04DX003 (ip), vehicle: saline with Tween-80) does the source give for `CC(=O)[O][Hg][c]1c(C)c(C)c(C)c(C)c1C` here?
Answer: The survivor count was 4 of 6.

Question: And the survivor count (dose: 200.0 mg/kg/injection, schedule: Q04DX003 (ip), vehicle: saline with Tween-80)?
Answer: Its survivor count is 2 of 6.

Question: What about the survivor count (dose: 400.0 mg/kg/injection, schedule: Q04DX003 (ip), vehicle: saline with Tween-80) of the same compound?
Answer: The survivor count was 0 of 6.

Question: What does the source list for `CC1CN1c1nc(N2CC2C)nc(N2CC2C)n1` (stereo not drawn)?
Answer: survivor count (dose: 25.0 mg/kg/injection, schedule: Q01DX009 (ip), vehicle: saline): 0 of 6; survivor count [2]: 0 of 4; survivor count (dose: 50.0 mg/kg/injection, schedule: Q01DX001 (ip), vehicle: saline): 0 of 4; survivor count [3]: 0 of 4; survivor count [4]: 0 of 4; survivor count [5]: 0 of 4; survivor count [6]: 0 of 4

Question: For `C#CC1(OCC(O)CO)CCCCC1` (stereo not drawn), which survivor count (dose: 400.0 mg/kg/injection, schedule: Q01DX009 (ip), vehicle: water) is on record?
Answer: Its survivor count is 0 of 6.

Question: With `OCC1C2CCC(C2)C1c1ccccc1` (stereo not drawn) as the compound, how does the survivor count (dose: 18.75 mg/kg/injection, schedule: Q01DX001 (ip), vehicle: saline) read?
Answer: The survivor count was 0 of 6.

Question: What about the survivor count (dose: 37.5 mg/kg/injection, schedule: Q01DX001 (ip), vehicle: saline) of the same compound?
Answer: Its survivor count is 1 of 6.

Question: What about the survivor count [7] of the same compound?
Answer: The survivor count was 0 of 6.

Question: And the survivor count [8]?
Answer: The survivor count was 0 of 6.

Question: And the survivor count [9]?
Answer: Its survivor count is 0 of 6.

Question: `NNc1ccnc2c1cnn2C1OC(CO)C(O)C1O` (stereo not drawn) was tested. Which survivor count (dose: 50.0 mg/kg/injection, schedule: Q01DX005 (ip), vehicle: other) did it give?
Answer: The survivor count was 3 of 3.

Question: And the T/C [13]?
Answer: The T/C was 125 % of control.

Question: And the survivor count [13]?
Answer: The survivor count was 3 of 3.

Question: And the survivor count (dose: 150.0 mg/kg/injection, schedule: Q01DX005 (ip), vehicle: other)?
Answer: The survivor count was 1 of 3.

Question: What about the survivor count (dose: 200.0 mg/kg/injection, schedule: Q01DX005 (ip), vehicle: other) of the same compound?
Answer: The survivor count was 2 of 3.

Question: How did the survivor count [1] turn out when `c1ccc(C2NC2c2ccccc2)cc1` (stereo not drawn) was run?
Answer: The survivor count was 1 of 4.

Question: How did the T/C [10] turn out when `O=C1c2ccccc2C(=O)c2c1cccc2N1CCOCC1` was run?
Answer: The T/C was 127 % of control [2 of 2 alive].
